# Whole data set: some 33,000 sequences, median “E-score (-0.5 to 0.5)” near -8e-05, cut for the highest 2% near 0.23. The list shows a part of the results.
# Target: T1, Nrg2 (UniProt P38082)
# T1 sequence: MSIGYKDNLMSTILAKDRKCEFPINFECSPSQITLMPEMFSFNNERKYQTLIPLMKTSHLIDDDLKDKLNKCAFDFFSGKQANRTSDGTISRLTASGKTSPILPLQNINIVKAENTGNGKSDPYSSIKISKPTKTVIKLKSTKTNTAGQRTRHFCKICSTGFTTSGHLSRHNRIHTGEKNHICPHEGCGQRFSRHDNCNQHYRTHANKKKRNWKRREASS
# Experiment: PBM E-score (8-mer binding enrichment) (E-score (-0.5 to 0.5)); higher = stronger / more preferred TF binding
# Conditions: protein concentration: 100 nM; construct: GST-full length
# Outline: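 Yeast transcription factors carrying a GST tag, as full-length proteins or DNA-binding domains, were produced by PURExpress in vitro transcription/translation. About 100-200 nM protein was applied to universal all-10-mer Agilent arrays, double-stranded by primer extension on fresh or once-stripped slides. Bound protein was detected with fluorescent anti-GST, and scans were normalised with masliner. The Universal PBM Analysis Suite gave each ungapped eight-base word, pooled with its reverse complement, an E-score, a modified Wilcoxon-Mann-Whitney statistic.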
row,Sequence,PBM E-score
1,ATGTCCAG,-0.0462
2,AGAGATGC,0.0246
3,AGAATTTC,-0.0868
4,ATCCGGTA,-0.0738
5,ACAACCCT,0.188
6,ATTTGAAA,0.142
7,GGATCGAC,0.0407
8,ACCGTACG,-0.114
9,CCAAAGGA,-0.0689
10,ACATCAAA,0.00799
11,ACACCAAT,0.183
12,CCTCCGGC,-0.151
13,ACCAGGAT,0.0294
14,TCCTGACA,0.091
15,CTATATGA,-0.0356
16,CCTCTACG,-0.135
17,GCAGATCA,-0.0576
18,AATTACAC,0.0164
19,ATCGTATA,0.0584
20,CAAGTGCA,-0.201
21,AAACCAAC,-0.0262
22,ATTATAGG,0.123

# Random excerpt: two entries already listed
row,Sequence,PBM E-score
22,ATTATAGG,0.123
17,GCAGATCA,-0.0576

# Individual results from the entries so far.
# Entry of ACACCAAT under PBM E-score: 0.183
# Entry of CTATATGA under PBM E-score: -0.0356

# Continued.

row,Sequence,PBM E-score
1,ATGGCGGC,0.0735
2,ACTGACCA,-0.091
3,CAATAAGG,-0.0927
4,AAACCTAT,-0.0961
5,GCAATTAC,0.104
6,TAATCAAA,0.207
7,AGGCAACA,-0.168
8,TCGCACAA,0.108
9,AGGCGGAA,-0.0108
10,GGGCGGTA,-0.192
11,ATGTAGGC,-0.0515
12,ATACATTG,0.129
13,GCGGACTA,-0.0963
14,CGAATTAG,0.186
15,GGGTATAC,0.0628
16,CACCTTCG,-0.151
17,TCGCTGAA,0.0436
18,CGCACCAC,0.17
19,CTACTTCA,0.0814
20,AACGTGCG,0.0054
21,ATAAGTGG,0.0259
22,ATTCAGGC,0.106

row,Sequence,PBM E-score
1,CCAACCCA,-0.242
2,ACGACCAT,-0.0998
3,CCACGGTC,-0.206
4,GGCGCTAC,-0.314
5,AAAGGCGA,-0.179
6,CGGATCGA,-0.0456
7,ACACGGTG,-0.142
8,GTGCATCA,0.129
9,GGCAGCTA,0.0336
10,AGAGCGTC,-0.112
11,AGGTCAAT,0.121
12,CTATATAA,0.0499
13,CAGCCAAC,-0.121
14,CGGACCCA,-0.0998
15,AGCGGTAT,0.144
16,CAGAACTG,0.162
17,AATATTCT,0.0382
18,AACGTGAG,-0.128
19,AAGGCAGG,0.0209
20,GGTTGAGA,-0.0311
21,TAAAAAAA,-0.0662
22,ACTGTACA,-0.188

row,Sequence,PBM E-score
1,AGCGTGTC,-0.106
2,CACGCCGC,-0.171
3,CGCCGACA,-0.0437
4,ACTTCTAC,-0.0161
5,TATCTGGA,-0.00866
6,CGGTGTGC,-0.226
7,ACGGCTTG,-0.154
8,ATTCCTAG,-0.0595
9,AATATCGA,0.244
10,CGCATCCC,-0.174
11,CTCATATA,0.029
12,GTTAAGTA,0.0775
13,AAACTATT,-0.0651
14,GATCCGGC,-0.143
15,CGCCGGTA,-0.0314
16,ACGGGCCT,-0.0944
17,CAGCCGAA,-0.00884
18,CACGGGAG,-0.095
19,CGCGAAAC,-0.00328
20,CGTACGTA,-0.21

# From the supplement of paper PMC3334620
